Reference: patent US8404435
Results are given in words; binding and its absence hold for the method and conditions named. Some entries that bind do so weakly or less than the wild type.

Chains of the proteins cited; added tags and fusions are not shown.
UniProt Q00987: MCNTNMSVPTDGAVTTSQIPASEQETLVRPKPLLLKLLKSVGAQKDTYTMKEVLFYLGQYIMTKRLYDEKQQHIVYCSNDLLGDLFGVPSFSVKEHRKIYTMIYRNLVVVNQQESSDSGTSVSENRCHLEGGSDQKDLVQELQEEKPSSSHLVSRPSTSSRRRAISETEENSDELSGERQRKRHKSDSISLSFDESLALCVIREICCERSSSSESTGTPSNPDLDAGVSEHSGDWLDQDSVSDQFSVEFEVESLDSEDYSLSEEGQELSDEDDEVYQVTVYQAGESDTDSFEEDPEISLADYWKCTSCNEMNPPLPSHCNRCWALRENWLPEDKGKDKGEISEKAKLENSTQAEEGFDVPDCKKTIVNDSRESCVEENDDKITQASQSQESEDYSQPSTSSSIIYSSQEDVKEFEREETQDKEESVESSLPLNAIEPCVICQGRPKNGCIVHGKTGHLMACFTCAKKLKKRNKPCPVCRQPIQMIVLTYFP
UniProt Q9NR12: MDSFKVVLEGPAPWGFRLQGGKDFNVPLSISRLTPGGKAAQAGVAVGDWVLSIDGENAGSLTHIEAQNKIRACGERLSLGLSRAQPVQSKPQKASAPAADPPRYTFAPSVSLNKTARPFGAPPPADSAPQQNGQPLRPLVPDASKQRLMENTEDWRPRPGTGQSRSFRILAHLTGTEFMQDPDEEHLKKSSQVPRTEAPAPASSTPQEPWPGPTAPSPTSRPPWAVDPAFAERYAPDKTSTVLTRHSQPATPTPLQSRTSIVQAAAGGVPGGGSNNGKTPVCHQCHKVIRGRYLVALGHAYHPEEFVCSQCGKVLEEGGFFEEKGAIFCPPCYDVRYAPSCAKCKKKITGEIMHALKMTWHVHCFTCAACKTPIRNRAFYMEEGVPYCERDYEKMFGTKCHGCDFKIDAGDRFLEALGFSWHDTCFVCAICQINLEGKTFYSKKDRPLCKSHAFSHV

Assays:
[1] = molecular target: Mdm2 in cells (HCT116, MEF and other cell lines) (UniProt Q00987); experiment: IP in HCT116 p53+/+ or p53-/- cells and MEF cell lines
[2] = molecular target: Mdm2 in cells (HCT116, MEF and other cell lines) (UniProt Q00987); experiment: IP and Western blot in cells (FIGS. 5A and 5B)
[3] = molecular target: His-Mdm2 separated and purified from E. coli (UniProt Q00987); experiment: in vitro ubiquitination assay with IP/IB (FIG. 7C)
[4] = molecular target: His-Mdm2 separated and purified from E. coli (UniProt Q00987); experiment: in vitro binding of proteins purified from E. coli (1 µg His-Mdm2, 0.5 µg Enigma), GST pull-down and IP
[5] = molecular target: His-Mdm2 separated and purified from E. coli (UniProt Q00987); experiment: in vitro binding, Western blot (FIG. 5C)
[6] = molecular target: His-Mdm2 separated and purified from E. coli (UniProt Q00987); experiment: IP/IB of binding proteins in the in vitro ubiquitination reaction (FIG. 7C)
[7] = molecular target: His-Mdm2 separated and purified from E. coli (UniProt Q00987); experiment: summary of the IP and in vitro binding assays (FIGS. 5A to 5C)
[8] = molecular target: GST-Mdm2 expressed in 293T cells (UniProt Q00987); experiment: GST pull-down from 293T cells transfected with Flag-Enigma and GST-Mdm2, Western blot with Flag antibody (FIG. 6A)
[9] = molecular target: GST-Mdm2 expressed in 293T cells (UniProt Q00987); experiment: IP with Flag antibody, Western blot with GST antibody, 293T cells (FIG. 5E)
[10] = molecular target: GST-Mdm2 expressed in 293T cells (UniProt Q00987); experiment: GST pull-down of GST-Mdm2 mutants from 293 cells expressing tagged Enigma, Western blot (FIG. 5D)

Measured: binding

Enigma in cells (HCT116 colon cancer cells and MEF cell lines) (from UniProt Q9NR12 1-457)
binds: [1] | [2]

Enigma protein separated and purified from E. coli (from UniProt Q9NR12 1-457)
binds: [3] | [4] | [5] | [6] | [7]

Flag-Enigma expressed in mammalian cells from pCMV Taq2B (from UniProt Q9NR12 1-457)
binds: [8] | [9] | [10]
